Assay results as given in the supplement of paper PMC10849652.
The list shows a part of the results.

Protein sequences, listed by entry. Tags and fused reporters are not part of them. Lines headed by an entry give the natural chain unless they say otherwise; changes in a name come on top.
UniProt Q96T88: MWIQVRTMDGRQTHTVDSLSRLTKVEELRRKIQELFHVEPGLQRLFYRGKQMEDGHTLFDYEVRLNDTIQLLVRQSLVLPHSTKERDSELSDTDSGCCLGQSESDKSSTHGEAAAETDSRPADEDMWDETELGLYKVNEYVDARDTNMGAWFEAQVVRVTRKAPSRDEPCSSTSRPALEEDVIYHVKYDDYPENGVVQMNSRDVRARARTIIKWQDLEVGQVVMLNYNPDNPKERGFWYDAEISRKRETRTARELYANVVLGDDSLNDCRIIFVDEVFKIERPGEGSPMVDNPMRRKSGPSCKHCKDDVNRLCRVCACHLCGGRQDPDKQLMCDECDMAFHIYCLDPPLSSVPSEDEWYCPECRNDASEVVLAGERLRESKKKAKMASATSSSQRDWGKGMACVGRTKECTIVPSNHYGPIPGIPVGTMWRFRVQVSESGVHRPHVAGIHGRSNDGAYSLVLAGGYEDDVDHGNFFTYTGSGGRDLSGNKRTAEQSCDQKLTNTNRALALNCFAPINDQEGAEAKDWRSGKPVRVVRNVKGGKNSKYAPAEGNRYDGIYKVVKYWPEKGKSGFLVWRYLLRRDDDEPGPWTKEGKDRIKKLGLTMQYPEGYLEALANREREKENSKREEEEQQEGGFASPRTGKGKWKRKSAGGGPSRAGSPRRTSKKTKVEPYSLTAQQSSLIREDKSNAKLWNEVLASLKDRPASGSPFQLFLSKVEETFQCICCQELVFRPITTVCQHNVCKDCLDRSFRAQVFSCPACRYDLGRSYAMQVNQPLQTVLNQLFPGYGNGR
UniProt P40818: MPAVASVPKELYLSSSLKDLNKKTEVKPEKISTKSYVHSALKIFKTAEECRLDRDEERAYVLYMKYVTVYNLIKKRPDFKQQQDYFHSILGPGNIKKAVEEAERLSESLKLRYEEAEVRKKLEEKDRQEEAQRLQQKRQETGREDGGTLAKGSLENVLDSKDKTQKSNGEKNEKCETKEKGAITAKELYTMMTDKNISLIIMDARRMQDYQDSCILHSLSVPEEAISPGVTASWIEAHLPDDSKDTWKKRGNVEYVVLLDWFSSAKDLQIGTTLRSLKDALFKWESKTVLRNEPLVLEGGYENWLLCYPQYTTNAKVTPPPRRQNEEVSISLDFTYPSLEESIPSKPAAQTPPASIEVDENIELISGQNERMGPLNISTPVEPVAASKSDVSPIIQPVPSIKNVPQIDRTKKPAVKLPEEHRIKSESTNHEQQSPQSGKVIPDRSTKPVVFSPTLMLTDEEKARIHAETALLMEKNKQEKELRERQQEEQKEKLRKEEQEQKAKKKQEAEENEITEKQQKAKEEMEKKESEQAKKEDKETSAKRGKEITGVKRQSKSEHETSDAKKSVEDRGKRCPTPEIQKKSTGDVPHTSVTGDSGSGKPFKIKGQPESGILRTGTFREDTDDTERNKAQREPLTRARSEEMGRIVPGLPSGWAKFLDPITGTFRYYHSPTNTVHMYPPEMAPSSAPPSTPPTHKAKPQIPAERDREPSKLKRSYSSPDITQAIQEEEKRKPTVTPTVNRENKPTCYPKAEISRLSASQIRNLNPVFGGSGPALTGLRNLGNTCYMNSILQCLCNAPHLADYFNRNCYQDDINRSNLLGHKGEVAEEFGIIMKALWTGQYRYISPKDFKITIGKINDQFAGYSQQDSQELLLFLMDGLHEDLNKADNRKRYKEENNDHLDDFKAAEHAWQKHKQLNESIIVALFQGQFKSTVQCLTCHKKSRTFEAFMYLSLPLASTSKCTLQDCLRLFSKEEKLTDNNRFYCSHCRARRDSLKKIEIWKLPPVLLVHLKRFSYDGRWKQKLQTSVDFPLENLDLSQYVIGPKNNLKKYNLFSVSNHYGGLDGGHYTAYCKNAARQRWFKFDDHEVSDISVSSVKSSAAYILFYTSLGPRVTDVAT
UniProt P51809, whole entry, looked up: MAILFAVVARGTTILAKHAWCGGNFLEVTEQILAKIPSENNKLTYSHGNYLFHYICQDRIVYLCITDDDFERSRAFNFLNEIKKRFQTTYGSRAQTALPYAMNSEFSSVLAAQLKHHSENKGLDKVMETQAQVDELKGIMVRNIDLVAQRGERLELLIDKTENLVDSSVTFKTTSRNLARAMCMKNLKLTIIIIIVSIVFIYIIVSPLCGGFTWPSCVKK
UniProt O94966: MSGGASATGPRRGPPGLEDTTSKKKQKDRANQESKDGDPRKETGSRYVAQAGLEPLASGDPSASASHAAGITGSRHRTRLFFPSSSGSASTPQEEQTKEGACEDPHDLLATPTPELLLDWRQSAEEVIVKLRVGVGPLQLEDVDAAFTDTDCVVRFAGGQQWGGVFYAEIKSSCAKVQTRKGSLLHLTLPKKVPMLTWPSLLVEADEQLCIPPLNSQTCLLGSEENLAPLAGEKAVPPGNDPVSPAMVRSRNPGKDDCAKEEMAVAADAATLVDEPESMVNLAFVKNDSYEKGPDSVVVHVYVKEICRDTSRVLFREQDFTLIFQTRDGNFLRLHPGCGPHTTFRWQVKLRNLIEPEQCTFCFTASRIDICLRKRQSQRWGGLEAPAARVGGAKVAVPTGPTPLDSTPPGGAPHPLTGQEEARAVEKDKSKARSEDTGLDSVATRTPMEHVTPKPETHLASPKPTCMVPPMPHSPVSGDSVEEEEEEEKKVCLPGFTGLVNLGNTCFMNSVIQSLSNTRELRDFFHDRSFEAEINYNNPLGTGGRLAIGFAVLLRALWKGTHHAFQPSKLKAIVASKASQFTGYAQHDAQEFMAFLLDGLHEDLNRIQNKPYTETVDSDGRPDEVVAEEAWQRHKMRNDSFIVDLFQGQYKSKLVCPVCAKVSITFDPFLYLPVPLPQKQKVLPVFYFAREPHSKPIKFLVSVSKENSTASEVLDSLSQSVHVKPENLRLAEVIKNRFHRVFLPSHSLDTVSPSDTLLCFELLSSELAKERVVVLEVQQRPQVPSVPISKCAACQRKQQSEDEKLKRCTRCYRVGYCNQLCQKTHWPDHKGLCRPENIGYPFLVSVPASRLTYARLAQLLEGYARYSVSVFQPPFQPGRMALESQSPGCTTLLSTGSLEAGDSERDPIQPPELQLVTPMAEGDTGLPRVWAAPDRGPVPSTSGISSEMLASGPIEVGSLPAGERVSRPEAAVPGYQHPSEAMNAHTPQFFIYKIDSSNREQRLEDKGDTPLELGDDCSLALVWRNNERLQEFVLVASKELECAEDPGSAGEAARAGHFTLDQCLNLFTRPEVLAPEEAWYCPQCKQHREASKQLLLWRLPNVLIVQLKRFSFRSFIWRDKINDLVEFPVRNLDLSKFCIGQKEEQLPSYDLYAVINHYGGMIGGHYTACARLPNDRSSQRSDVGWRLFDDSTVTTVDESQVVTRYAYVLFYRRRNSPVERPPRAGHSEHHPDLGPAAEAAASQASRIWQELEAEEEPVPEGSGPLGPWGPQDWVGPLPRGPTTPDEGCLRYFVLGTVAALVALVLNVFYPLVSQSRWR
UniProt P22415: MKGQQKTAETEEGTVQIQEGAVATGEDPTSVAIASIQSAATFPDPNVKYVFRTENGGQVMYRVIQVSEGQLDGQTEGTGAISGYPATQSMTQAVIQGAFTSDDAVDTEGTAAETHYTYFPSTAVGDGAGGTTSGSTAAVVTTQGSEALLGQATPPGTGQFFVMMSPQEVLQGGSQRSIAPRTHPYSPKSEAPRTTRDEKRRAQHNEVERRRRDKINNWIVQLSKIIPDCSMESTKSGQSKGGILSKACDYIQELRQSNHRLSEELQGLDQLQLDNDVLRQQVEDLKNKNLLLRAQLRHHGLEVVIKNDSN
UniProt Q9BRT2: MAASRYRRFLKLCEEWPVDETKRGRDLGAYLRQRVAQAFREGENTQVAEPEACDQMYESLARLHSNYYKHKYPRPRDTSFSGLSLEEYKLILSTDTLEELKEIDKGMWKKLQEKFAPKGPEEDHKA
UniProt O14795: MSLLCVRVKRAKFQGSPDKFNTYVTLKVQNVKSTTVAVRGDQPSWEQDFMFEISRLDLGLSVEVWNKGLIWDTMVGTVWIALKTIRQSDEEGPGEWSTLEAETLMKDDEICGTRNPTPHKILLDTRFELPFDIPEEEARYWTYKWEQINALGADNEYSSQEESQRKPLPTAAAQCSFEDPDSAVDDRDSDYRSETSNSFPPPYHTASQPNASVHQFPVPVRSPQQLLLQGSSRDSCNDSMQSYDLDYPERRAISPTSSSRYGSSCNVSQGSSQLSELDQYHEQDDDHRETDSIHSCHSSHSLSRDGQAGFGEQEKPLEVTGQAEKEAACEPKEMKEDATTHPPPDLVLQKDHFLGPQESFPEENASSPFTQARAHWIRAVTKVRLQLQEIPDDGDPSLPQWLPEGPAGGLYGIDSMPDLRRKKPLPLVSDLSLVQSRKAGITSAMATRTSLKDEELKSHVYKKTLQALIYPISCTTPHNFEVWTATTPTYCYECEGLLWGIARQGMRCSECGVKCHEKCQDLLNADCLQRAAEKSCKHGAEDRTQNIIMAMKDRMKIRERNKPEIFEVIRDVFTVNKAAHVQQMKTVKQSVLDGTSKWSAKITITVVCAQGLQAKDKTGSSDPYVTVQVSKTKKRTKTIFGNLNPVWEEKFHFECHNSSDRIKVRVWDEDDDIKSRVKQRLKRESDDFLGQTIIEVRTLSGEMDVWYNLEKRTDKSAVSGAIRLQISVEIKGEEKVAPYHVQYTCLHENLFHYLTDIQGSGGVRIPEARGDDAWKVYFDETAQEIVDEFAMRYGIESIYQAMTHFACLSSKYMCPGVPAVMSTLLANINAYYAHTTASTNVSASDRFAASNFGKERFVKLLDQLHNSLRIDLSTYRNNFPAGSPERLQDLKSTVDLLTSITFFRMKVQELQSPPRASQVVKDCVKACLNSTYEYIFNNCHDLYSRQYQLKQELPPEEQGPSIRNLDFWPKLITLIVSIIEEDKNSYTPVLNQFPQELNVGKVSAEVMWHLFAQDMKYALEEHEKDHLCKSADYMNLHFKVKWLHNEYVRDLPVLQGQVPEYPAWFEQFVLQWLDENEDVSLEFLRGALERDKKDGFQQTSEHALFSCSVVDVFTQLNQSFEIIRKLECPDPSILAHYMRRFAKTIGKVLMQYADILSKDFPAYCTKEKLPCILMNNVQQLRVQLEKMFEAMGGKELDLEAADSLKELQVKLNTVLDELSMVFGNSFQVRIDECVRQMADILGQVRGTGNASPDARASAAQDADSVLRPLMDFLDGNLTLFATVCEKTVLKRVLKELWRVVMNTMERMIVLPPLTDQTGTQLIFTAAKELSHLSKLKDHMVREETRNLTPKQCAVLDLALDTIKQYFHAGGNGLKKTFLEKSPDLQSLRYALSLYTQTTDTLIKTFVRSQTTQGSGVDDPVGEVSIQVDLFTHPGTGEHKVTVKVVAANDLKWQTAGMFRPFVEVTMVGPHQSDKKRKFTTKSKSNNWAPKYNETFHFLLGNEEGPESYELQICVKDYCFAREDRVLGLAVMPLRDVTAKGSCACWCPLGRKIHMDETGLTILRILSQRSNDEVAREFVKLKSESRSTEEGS
UniProt Q9Y5T5, whole entry, looked up: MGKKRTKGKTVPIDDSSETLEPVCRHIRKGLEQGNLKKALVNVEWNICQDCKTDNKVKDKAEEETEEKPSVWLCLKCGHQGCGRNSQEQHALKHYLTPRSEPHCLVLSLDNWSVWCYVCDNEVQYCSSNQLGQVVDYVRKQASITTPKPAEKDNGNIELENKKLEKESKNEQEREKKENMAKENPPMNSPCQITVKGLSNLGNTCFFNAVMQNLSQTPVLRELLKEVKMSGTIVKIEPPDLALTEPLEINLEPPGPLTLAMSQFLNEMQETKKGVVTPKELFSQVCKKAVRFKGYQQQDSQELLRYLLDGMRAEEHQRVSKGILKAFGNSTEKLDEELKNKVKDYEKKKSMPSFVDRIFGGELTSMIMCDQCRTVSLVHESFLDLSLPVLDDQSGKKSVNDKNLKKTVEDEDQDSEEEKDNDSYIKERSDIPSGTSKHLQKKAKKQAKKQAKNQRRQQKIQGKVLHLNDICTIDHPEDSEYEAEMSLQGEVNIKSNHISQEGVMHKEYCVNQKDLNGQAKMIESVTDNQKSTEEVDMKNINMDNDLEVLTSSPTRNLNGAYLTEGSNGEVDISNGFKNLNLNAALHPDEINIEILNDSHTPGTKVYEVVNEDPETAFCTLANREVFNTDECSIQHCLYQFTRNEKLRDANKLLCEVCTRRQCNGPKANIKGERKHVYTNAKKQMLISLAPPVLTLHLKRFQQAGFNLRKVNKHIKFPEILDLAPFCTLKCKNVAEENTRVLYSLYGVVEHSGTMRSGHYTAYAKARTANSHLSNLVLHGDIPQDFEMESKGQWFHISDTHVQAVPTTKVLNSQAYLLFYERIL
UniProt Q9NVA1: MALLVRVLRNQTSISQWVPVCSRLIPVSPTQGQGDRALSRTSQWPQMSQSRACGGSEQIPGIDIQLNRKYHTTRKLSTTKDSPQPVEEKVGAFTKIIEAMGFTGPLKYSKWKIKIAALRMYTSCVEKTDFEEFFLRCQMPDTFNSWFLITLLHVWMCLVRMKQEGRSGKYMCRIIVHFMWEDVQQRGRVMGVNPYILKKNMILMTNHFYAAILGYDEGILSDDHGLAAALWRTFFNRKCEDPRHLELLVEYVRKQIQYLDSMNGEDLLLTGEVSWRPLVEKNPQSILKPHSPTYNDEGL

Columns and labels:
Test in all cases: log2 fold change, soluble protein after heating vs DMSO (PISA); higher = thermal stabilisation; K562 lysate, 10 uM; active = over 0.2 and 3.5 SD of the protein, either way, in both replicates (recomputed)
erlotinib = compound: C#Cc1cccc(Nc2ncnc3cc(OCCOC)c(OCCOC)cc23)c1 [erlotinib]
In short: (§1)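 A 30 min treatment with 10 μM compound was applied to crude K562 extract at 1 mg/mL protein in PBS pH 7.4 with 1 mM MgCl2. Heating for 3 min spanned 48°C-58°C, after which aliquots were pooled, adjusted to 0.5% NP-40 at 4°C and spun at 21,000xg for 90 min. TMTpro 16plex LC-MS/MS of the supernatant, with channel sums equalised, gave values recorded as log-two fold change in thermal stability against solvent controls, from duplicates.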

[1] = compound: C/C(=N\NC(=O)C1=CC(=CC=C1)S(=O)(=O)N2CCOCC2)/C3=C(C=CC(=C3)Cl)O
In short: as §1

[2] = compound: C1=CC(=CC=C1C2=NC3=C(N2)C=C(C=C3)C(=O)N)OC4=CC=C(C=C4)Cl
In short: as §1

[3] = compound: C1=CC2=C(C=CC(=C2)/C=C\3/C(=O)NC(=NCC4=CC=CS4)S3)N=C1
In short: as §1

[4] = compound: C1=CC2=NC=CN=C2C=C1/C=C/3\C(=O)NC(=O)S3
In short: as §1

[5] = compound: C1=CC=C(C=C1)C2=NC(=C(N2)C3=CC=NC=C3)C4=CC(=C(C=C4)Cl)O
In short: as §1

[6] = compound: C1=CC=C2C(=C1)C3=NNC4=CC=CC(=C43)C2=O
In short: as §1

[7] = compound: C1CCN(C1)C(=O)NC2=CC=CC(=C2)NC3=NC=C(C(=N3)NCCC4=CN=CN4)Br
In short: as §1

[8] = compound: C1CN(CCC1(CC2=CC=C(C=C2)Cl)N)C3=NC=NC4=C3C=CN4
In short: as §1

IRAK-1-4 Inhibitor I = compound: C1COCCN1CCN2C3=CC=CC=C3N=C2NC(=O)C4=CC(=CC=C4)[N+](=O)[O-] [IRAK-1-4 Inhibitor I]
In short: as §1

Measured: log2 fold change

UGGT1 (UniProt Q9NYU2)
inactive: erlotinib -0.006 | [1] -0.021 | [2] 0.021 | [3] -0.004 | [4] -0.012 | [5] -0.01 | [6] 0.013 | [7] 0 | [8] -0.01 | IRAK-1-4 Inhibitor I 0.001

VIPAS39 (UniProt Q9H9C1)
inactive: erlotinib -0.005 | [1] 0.001 | [2] 0.083 | [3] 0.024 | [4] 0.016 | [5] 0.09 | [6] 0.022 | [7] 0 | [8] 0.072 | IRAK-1-4 Inhibitor I 0.023

UGCG (UniProt Q16739)
inactive: erlotinib -0.019 | [1] 0.082 | [2] 0.15 | [3] -0.059 | [4] 0.134 | [5] 0.003 | [6] -0.007 | IRAK-1-4 Inhibitor I 0.003

UXT isoform 2 (UniProt Q9UBK9)
inactive: erlotinib 0.012 | [1] -0.036 | [2] 0.033 | [3] 0.021 | [4] -0.054 | [5] 0.035 | [6] 0.012 | [7] -0.033 | [8] 0.186 | IRAK-1-4 Inhibitor I 0.007

VAMP2 (UniProt P63027)
inactive: erlotinib -0.083 | [1] 0.055 | [2] -0.024 | [3] -0.063 | [4] 0.063 | [5] -0.082 | [6] -0.037 | [7] 0.081 | [8] -0.009 | IRAK-1-4 Inhibitor I -0.033

UHRF1 isoform 2 (UniProt Q96T88)
inactive: erlotinib 0.015 | [1] 0.089 | [2] -0.1 | [3] 0 | [4] 0.089 | [5] 0.021 | [6] -0.032 | [7] 0.026 | [8] 0.053 | IRAK-1-4 Inhibitor I -0.022

VDAC3 (UniProt Q9Y277)
inactive: erlotinib 0.015 | [1] 0.015 | [2] -0.025 | [3] -0.01 | [4] 0.003 | [5] 0.002 | [6] -0.024 | [7] -0.003 | [8] 0.017 | IRAK-1-4 Inhibitor I 0.034

USP8 (UniProt P40818)
inactive: erlotinib -0.011 | [1] -0.034 | [2] 0.026 | [3] -0.004 | [4] -0.034 | [5] 0.014 | [6] -0.028 | [7] -0.014 | [8] 0.006 | IRAK-1-4 Inhibitor I -0.019

2 neighbouring entries already listed, quoted:
UGCG (UniProt Q16739)
inactive: erlotinib -0.019 | [1] 0.082 | [2] 0.15 | [3] -0.059 | [4] 0.134 | [5] 0.003 | [6] -0.007 | IRAK-1-4 Inhibitor I 0.003

UXT isoform 2 (UniProt Q9UBK9)
inactive: erlotinib 0.012 | [1] -0.036 | [2] 0.033 | [3] 0.021 | [4] -0.054 | [5] 0.035 | [6] 0.012 | [7] -0.033 | [8] 0.186 | IRAK-1-4 Inhibitor I 0.007

Remaining list, next part

UGGT2 (UniProt Q9NYU1)
inactive: erlotinib -0.083 | [1] 0.056 | [2] -0.013 | [3] -0.009 | [4] -0.03 | [5] -0.021 | [6] 0.056 | [7] 0.027 | [8] 0.015 | IRAK-1-4 Inhibitor I -0.003

VAMP7 (UniProt P51809)
inactive: erlotinib -0.014 | [1] 0.01 | [2] -0.002 | [3] 0.003 | [4] 0 | [5] -0.01 | [6] -0.02 | [7] -0.009 | [8] 0.044 | IRAK-1-4 Inhibitor I -0.007

UTP14A (UniProt Q9BVJ6)
inactive: erlotinib 0.009 | [1] -0.124 | [2] 0.091 | [3] -0.008 | [4] -0.041 | [5] 0.033 | [6] -0.043 | [7] -0.001 | [8] -0.007 | IRAK-1-4 Inhibitor I -0.014

USP19 isoform 4 (UniProt O94966)
inactive: erlotinib 0.043 | [1] -0.046 | [2] 0.029 | [3] 0.187 | [5] -0.174 | [6] -0.232 | [7] 0.047 | [8] 0 | IRAK-1-4 Inhibitor I 0.045

USF1 (UniProt P22415)
inactive: erlotinib -0.027 | [1] -0.007 | [2] -0.014 | [3] 0.016 | [4] -0.03 | [5] -0.076 | [6] -0.102 | [7] -0.033 | [8] -0.009 | IRAK-1-4 Inhibitor I 0.001

USO1 (UniProt O60763)
inactive: erlotinib -0.074 | [1] 0.219 | [2] 0.089 | [3] 0.029 | [4] -0.342 | [5] -0.02 | [6] 0.015 | [7] 0.08 | [8] -0.059 | IRAK-1-4 Inhibitor I 0.078

UVRAG (UniProt Q9P2Y5)
inactive: erlotinib -0.003 | [1] -0.072 | [2] -0.05 | [3] 0.034 | [4] 0.044 | [5] -0.035 | [6] 0.012 | [7] -0.051 | [8] 0.024 | IRAK-1-4 Inhibitor I 0.041

URB1 (UniProt O60287)
inactive: erlotinib -0.023 | [1] 0.143 | [2] -0.02 | [3] 0.018 | [5] 0.042 | [6] 0.025 | [7] -0.021 | [8] -0.06 | IRAK-1-4 Inhibitor I -0.043

VAT1 (UniProt Q99536)
inactive: erlotinib -0.01 | [1] -0.012 | [2] 0.053 | [3] -0.001 | [4] -0.002 | [5] 0.003 | [6] 0.012 | [7] 0.015 | [8] 0.012 | IRAK-1-4 Inhibitor I 0.009

UQCC2 (UniProt Q9BRT2)
inactive: erlotinib 0.037 | [1] 0.044 | [2] -0.039 | [3] 0.06 | [4] 0.001 | [5] -0.007 | [6] 0 | [7] -0.05 | [8] -0.023 | IRAK-1-4 Inhibitor I 0.016

UNC13B isoform 2 (UniProt O14795)
inactive: erlotinib -0.145 | [1] -0.084 | [2] -0.119 | [3] -0.081 | [5] 0.044 | [6] -0.102 | [7] -0.099 | [8] -0.028 | IRAK-1-4 Inhibitor I 0.061

USP10 isoform 2 (UniProt Q14694)
inactive: erlotinib 0.022 | [1] -0.032 | [2] 0.01 | [3] 0.007 | [4] -0.017 | [5] 0.023 | [6] -0.028 | [7] -0.033 | [8] -0.034 | IRAK-1-4 Inhibitor I -0.005

UTP4 (UniProt Q969X6)
inactive: erlotinib -0.032 | [1] -0.109 | [2] -0.006 | [3] -0.042 | [4] -0.007 | [5] -0.003 | [6] -0.065 | [7] -0.003 | [8] 0 | IRAK-1-4 Inhibitor I -0.053

ULK3 isoform 4 (UniProt Q6PHR2)
inactive: erlotinib 0.156 | [1] 0.149 | [2] -0.008 | [3] -0.151 | [4] -0.053 | [6] 0.177 | [7] 0.179 | [8] 0.01

USP16 (UniProt Q9Y5T5)
inactive: erlotinib -0.002 | [1] -0.01 | [2] -0.01 | [3] -0.002 | [4] 0.011 | [5] 0.036 | [6] -0.016 | [7] -0.028 | [8] -0.005 | IRAK-1-4 Inhibitor I -0.033

UQCRH (UniProt P07919)
inactive: erlotinib -0.008 | [1] 0.015 | [2] -0.034 | [3] -0.032 | [4] 0.067 | [5] -0.002 | [6] -0.048 | [7] 0.001 | [8] -0.002 | IRAK-1-4 Inhibitor I -0.029

UPF2 (UniProt Q9HAU5)
inactive: erlotinib -0.002 | [1] 0.03 | [2] -0.006 | [3] 0.005 | [4] 0 | [5] 0.001 | [6] -0.006 | [7] 0 | [8] -0.003 | IRAK-1-4 Inhibitor I 0.011

USP11 (UniProt P51784)
inactive: erlotinib 0.014 | [1] -0.032 | [2] -0.012 | [3] -0.004 | [4] 0.027 | [5] 0.019 | [6] -0.032 | [7] 0.005 | [8] 0.039 | IRAK-1-4 Inhibitor I 0.027

UQCC1 (UniProt Q9NVA1)
inactive: erlotinib 0.02 | [1] 0.033 | [2] -0.015 | [3] 0.008 | [4] -0.012 | [5] 0.001 | [6] -0.044 | [7] -0.017 | [8] 0.015 | IRAK-1-4 Inhibitor I 0.016

UGP2 (UniProt Q16851)
inactive: erlotinib -0.01 | [1] 0.033 | [2] 0.001 | [3] -0.023 | [4] 0.003 | [5] -0.009 | [6] -0.007 | [7] 0.003 | [8] -0.018 | IRAK-1-4 Inhibitor I 0.012

VARS (UniProt P26640)
inactive: erlotinib 0.031 | [1] 0.035 | [2] -0.031 | [3] 0.007 | [4] 0.03 | [5] 0.019 | [6] -0.035 | [7] 0.021 | [8] -0.002 | IRAK-1-4 Inhibitor I 0.011
